The values that follow come from patent US20220073617A1.

Protein sequences, listed by entry. Tags and fused reporters are not part of them. Lines headed by an entry give the natural chain unless they say otherwise; changes in a name come on top.
UniProt Q14242: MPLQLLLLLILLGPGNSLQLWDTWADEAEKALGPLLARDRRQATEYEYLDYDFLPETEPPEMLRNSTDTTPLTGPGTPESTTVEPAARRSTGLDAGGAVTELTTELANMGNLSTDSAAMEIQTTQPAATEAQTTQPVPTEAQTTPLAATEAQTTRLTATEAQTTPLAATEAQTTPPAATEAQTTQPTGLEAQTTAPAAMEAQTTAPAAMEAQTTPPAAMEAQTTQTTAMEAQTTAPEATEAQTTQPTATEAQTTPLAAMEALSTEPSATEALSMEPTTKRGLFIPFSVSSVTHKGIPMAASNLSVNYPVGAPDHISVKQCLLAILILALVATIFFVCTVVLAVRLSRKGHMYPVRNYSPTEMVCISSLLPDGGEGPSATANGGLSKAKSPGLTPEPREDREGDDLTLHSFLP
UniProt Q9H7M9: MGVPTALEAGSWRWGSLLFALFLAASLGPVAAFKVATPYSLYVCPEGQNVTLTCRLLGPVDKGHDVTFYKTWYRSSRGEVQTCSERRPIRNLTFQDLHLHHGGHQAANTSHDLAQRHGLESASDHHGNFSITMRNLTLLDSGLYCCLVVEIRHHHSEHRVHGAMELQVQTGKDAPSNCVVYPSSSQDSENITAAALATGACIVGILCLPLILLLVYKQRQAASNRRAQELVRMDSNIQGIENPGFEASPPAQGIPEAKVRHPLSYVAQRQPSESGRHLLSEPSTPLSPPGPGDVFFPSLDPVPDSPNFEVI

Results are given in words; binding and its absence hold for the method and conditions named. Some entries that bind do so weakly or less than the wild type. Tags and fused reporters may be left off the sequences shown.

In the test the target is T1, human PSGL1 19-mer-huFc (amino-terminal 19 amino acids of mature PSGL1 fused to human Fc) (human) (UniProt Q14242).
T1 sequence (sulfotyrosine and siayl lewis X carbohydrate post-translational modifications, looked up): QATEYEYLDYDFLPETEPP
Nature of the test: BLI and CHO-PSGL-1 cell binding, pH 6.0.

In the case of “human VISTA-Fc H2A mutant (histidines 153-155 replaced by alanine) (from UniProt Q9H7M9 33-194) (Fc fusion)”, the binding entry is “binds”.
